Laboratory results published in patent publication US20180112002A1 (University of California, published 2018).
Results are given in words; binding and its absence hold for the method and conditions named.

Columns and labels:
Experiment in all cases: fluorescence confocal microscopy, MEC1 transfectants
[1] = biological target: ROR1 lacking the extracellular KNG domain
ΔCRD-ROR1 = biological target: ΔCRD-ROR1
ΔPRD-ROR1 = biological target: ΔPRD-ROR1

Measured: binding

B1: ARHGEF6 protein (Rho guanine nucleotide exchange factor 6) (other)
chain: MNPEEQIVTWLISLGVLESPKKTICDPEEFLKSSLKNGVVLCKLINRLMPGSVEKFCLDPQTEADCINNINDFLKGCATLQVEIFDPDDLYSGVNFSKVLSTLLAVNKATEDQLSERPCGRSSSLSAANTSQTNPQGAVSSTVSGLQRQSKTVEMTENGSHQLIVKARFNFKQTNEDELSVCKGDIIYVTRVEEGGWWEGTLNGRTGWFPSNYVREIKSSERPLSPKAVKGFETAPLTKNYYTVVLQNILDTEKEYAKELQSLLVTYLRPLQSNNNLSTVEVTSLLGNFEEVCTFQQTLCQALEECSKFPENQHKVGGCLLSLMPHFKSMYLAYCANHPSAVNVLTQHSDELEQFMENQGASSPGILILTTNLSKPFMRLEKYVTLLQELERHMEDTHPDHQDILKAIVAFKTLMGQCQDLRKRKQLELQILSEPIQAWEGEDIKNLGNVIFMSQVMVQYGACEEKEERYLMLFSNVLIMLSASPRMSGFIYQGKIPIAGTVVTRLDEIEGNDCTFEITGNTVERIVVHCNNNQDFQEWLEQLNRLIRGPASCSSLSKTSSSSCSAHSSFSSTGQPRGPLEPPQIIKPWSLSCLRPAPPLRPSAALGYKERMSYILKESSKSPKTMKKFLHKRKTERKPSEEEYVIRKSTAALEEDAQILKVIEAYCTSANFQQGHGSSTRKDSIPQVLLPEEEKLIIEETRSNGQTIMEEKSLVDTVYALKDEVRELKQENKRMKQCLEEELKSRRDLEKLVRRLLKQTDECIRGESSSKTSILP
notes: Endogenous protein of CLL and MEC1 cells
no binding: all assays above
